From patent US20140038203A1, “METHODS FOR DETECTING OR PREDICTING KIDNEY DISEASE” (MUSC FOUNDATION FOR RESEARCH DEVELOPMENT, priority 2012, published 2014) come the findings set out here.

The chains are these.
B1: Ig lambda chain V-III region SH (protein, UniProt P01714 21-112, looked up)
Immunoglobulin lambda …: SELTQDPAVSVALGQTVRITCQGDSLRSYYASWYQQKPGQAPVLVIYGKNNRPSGIPDRFSGSSSGNTASLTITGAQAEDEADYYCNSRDSS
B2: Serine protease inhibitor Kazal-type 5 (protein, UniProt Q9NQ38 23-1064, looked up)
Serine protease inhibitor …: KNEDQEMCHEFQAFMKNGKLFCPQDKKFFQSLDGIMFINKCATCKMILEKEAKSQKRARHLARAPKATAPTELNCDDFKKGERDGDFICPDYYEAVCGTDGKTYDNRCALCAENAKTGSQIGVKSEGECKSSNPEQDVCSAFRPFVRDGRLGCTRENDPVLGPDGKTHGNKCAMCAELFLKEAENAKREGETRIRRNAEKDFCKEYEKQVRNGRLFCTRESDPVRGPDGRMHGNKCALCAEIFKQRFSEENSKTDQNLGKAEEKTKVKREIVKLCSQYQNQAKNGILFCTRENDPIRGPDGKMHGNLCSMCQAYFQAENEEKKKAEARARNKRESGKATSYAELCSEYRKLVRNGKLACTRENDPIQGPDGKVHGNTCSMCEVFFQAEEEEKKKKEGKSRNKRQSKSTASFEELCSEYRKSRKNGRLFCTRENDPIQGPDGKMHGNTCSMCEAFFQQEERARAKAKREAAKEICSEFRDQVRNGTLICTREHNPVRGPDGKMHGNKCAMCASVFKLEEEEKKNDKEEKGKVEAEKVKREAVQELCSEYRHYVRNGRLPCTRENDPIEGLDGKIHGNTCSMCEAFFQQEAKEKERAEPRAKVKREAEKETCDEFRRLLQNGKLFCTRENDPVRGPDGKTHGNKCAMCKAVFQKENEERKRKEEEDQRNAAGHGSSGGGGGNTQDECAEYREQMKNGRLSCTRESDPVRDADGKSYNNQCTMCKAKLEREAERKNEYSRSRSNGTGSESGKDTCDEFRSQMKNGKLICTRESDPVRGPDGKTHGNKCTMCKEKLEREAAEKKKKEDEDRSNTGERSNTGERSNDKEDLCREFRSMQRNGKLICTRENNPVRGPYGKMHINKCAMCQSIFDREANERKKKDEEKSSSKPSNNAKDECSEFRNYIRNNELICPRENDPVHGADGKFYTNKCYMCRAVFLTEALERAKLQEKPSHVRASQEEDSPDSFSSLDSEMCKDYRVLPRIGYLCPKDLKPVCGDDGQTYNNPCMLCHENLIRQTNTHIRSTGKCEESSTPGTTAASMPPSDE
B3: Alpha-2-HS-glycoprotein (protein, UniProt P02765 19-300; P02765 341-367, looked up)
Alpha-2-HS-glycoprotein chain … 1: APHGPGLIYRQPNCDDPETEEAALVAIDYINQNLPWGYKHTLNQIDEVKVWPQQPSGELFEIEIDTLETTCHVLDPTPVARCSVRQLKEHAVEGDCDFQLLKLDGKFSVVYAKCDSSPDSAEDVRKVCQDCPLLAPLNDTRVVHAAKAALAAFNAQNNGSNFQLEEISRAQLVPLPPSTYVEFTVSGTDCVAKEATEAAKCNLLAEKQYGFCKATLSEKLGGAEVAVTCMVFQTQPVSSQPQPEGANEAVPTPVVDPDAPPSPPLGAPGLPPAGSPPDSHVL
Alpha-2-HS-glycoprotein chain … 2: TVVQPSVGAAAGPVVPPCPGRIRHFKV
B4: Ribosome-binding protein 1 (protein, UniProt Q9P2E9 1-1410, looked up)
Ribosome-binding protein 1: MDIYDTQTLGVVVFGGFMVVSAIGIFLVSTFSMKETSYEEALANQRKEMAKTHHQKVEKKKKEKTVEKKGKTKKKEEKPNGKIPDHDPAPNVTVLLREPVRAPAVAVAPTPVQPPIIVAPVATVPAMPQEKLASSPKDKKKKEKKVAKVEPAVSSVVNSIQVLTSKAAILETAPKEVPMVVVPPVGAKGNTPATGTTQGKKAEGTQNQSKKAEGAPNQGRKAEGTPNQGKKTEGTPNQGKKAEGTPNQGKKAEGTPNQGKKAEGAQNQGKKVDTTPNQGKKVEGAPTQGRKAEGAQNQAKKVEGAQNQGKKAEGAQNQGKKGEGAQNQGKKAEGAQNQGKKAEGAQNQGKKAEGAQNQGKKAEGAQNQGKKAEGAQNQGKKAEGAQNQGKKVEGAQNQGKKAEGAQNQGKKAEGAQNQGKKAEGAQNQGKKAEGAQNQGKKAEGAQNQGKKAEGAQNQGKKAEGAQNQGKKVEGAQNQGKKAEGAQNQGKKAEGAQNQGKKAEGAQNQGQKGEGAQNQGKKTEGAQGKKAERSPNQGKKGEGAPIQGKKADSVANQGTKVEGITNQGKKAEGSPSEGKKAEGSPNQGKKADAAANQGKKTESASVQGRNTDVAQSPEAPKQEAPAKKKSGSKKKGEPGPPDADGPLYLPYKTLVSTVGSMVFNEGEAQRLIEILSEKAGIIQDTWHKATQKGDPVAILKRQLEEKEKLLATEQEDAAVAKSKLRELNKEMAAEKAKAAAGEAKVKKQLVAREQEITAVQARMQASYREHVKEVQQLQGKIRTLQEQLENGPNTQLARLQQENSILRDALNQATSQVESKQNAELAKLRQELSKVSKELVEKSEAVRQDEQQRKALEAKAAAFEKQVLQLQASHRESEEALQKRLDEVSRELCHTQSSHASLRADAEKAQEQQQQMAELHSKLQSSEAEVRSKCEELSGLHGQLQEARAENSQLTERIRSIEALLEAGQARDAQDVQASQAEADQQQTRLKELESQVSGLEKEAIELREAVEQQKVKNNDLREKNWKAMEALATAEQACKEKLLSLTQAKEESEKQLCLIEAQTMEALLALLPELSVLAQQNYTEWLQDLKEKGPTLLKHPPAPAEPSSDLASKLREAEETQSTLQAECDQYRSILAETEGMLRDLQKSVEEEEQVWRAKVGAAEEELQKSRVTVKHLEEIVEKLKGELESSDQVREHTSHLEAELEKHMAAASAECQNYAKEVAGLRQLLLESQSQLDAAKSEAQKQSDELALVRQQLSEMKSHVEDGDIAGAPASSPEAPPAEQDPVQLKTQLEWTEAILEDEQTQRQKLTAEFEEAQTSACRLQEELEKLRTAGPLESSETEEASQLKERLEKEKKLTSDLGRAATRLQELLKTTQEQLAREKDTVKKLQEQLEKAEDGSSSKEGTSV
B5: Ganglioside GM2 activator (protein, UniProt P17900 32-193, looked up)
Ganglioside GM2 activator: SSFSWDNCDEGKDPAVIRSLTLEPDPIIVPGNVTLSVMGSTSVPLSSPLKVDLVLEKEVAGLWIKIPCTDYIGSCTFEHFCDVLDMLIPTGEPCPEPLRTYGLPCHCPFKEGTYSLPKSEFVVPDLELPSWLTTGNYRIESVLSSSGKRLGCIKIAASLKGI
B6: Ig mu chain C region (protein, UniProt P01871 1-474, looked up)
Immunoglobulin heavy constant …: GSASAPTLFPLVSCENSPSDTSSVAVGCLAQDFLPDSITFSWKYKNNSDISSTRGFPSVLRGGKYAATSQVLLPSKDVMQGTDEHVVCKVQHPNGNKEKNVPLPVIAELPPKVSVFVPPRDGFFGNPRKSKLICQATGFSPRQIQVSWLREGKQVGSGVTTDQVQAEAKESGPTTYKVTSTLTIKESDWLGQSMFTCRVDHRGLTFQQNASSMCVPDQDTAIRVFAIPPSFASIFLTKSTKLTCLVTDLTTYDSVTISWTRQNGEAVKTHTNISESHPNATFSAVGEASICEDDWNSGERFTCTVTHTDLPSPLKQTISRPKGVALHRPDVYLLPPAREQLNLRESATITCLVTGFSPADVFVQWMQRGQPLSPEKYVTSAPMPEPQAPGRYFAHSILTVSEEEWNTGETYTCVVAHEALPNRVTERTVDKSTEGEVSADEEGFENLWATASTFIVLFLLSLFYSTTVTLFKVK
B7: Beta-2-glycoprotein 1 (protein, UniProt P02749 20-345, looked up)
Beta-2-glycoprotein 1: GRTCPKPDDLPFSTVVPLKTFYEPGEEITYSCKPGYVSRGGMRKFICPLTGLWPINTLKCTPRVCPFAGILENGAVRYTTFEYPNTISFSCNTGFYLNGADSAKCTEEGKWSPELPVCAPIICPPPSIPTFATLRVYKPSAGNNSLYRDTAVFECLPQHAMFGNDTITCTTHGNWTKLPECREVKCPFPSRPDNGFVNYPAKPTLYYKDKATFGCHDGYSLDGPEEIECTKLGNWSAMPSCKASCKVPVKKATVVYQGERVKIQEKFKNGMLHGDKVSFFCKNKEKKCSYTEDAQCIDGTIEVPKCFKEHSSLAFWKTDASDVKPC
B8: Ceruloplasmin (protein, UniProt P00450 20-1065, looked up)
Ceruloplasmin: KEKHYYIGIIETTWDYASDHGEKKLISVDTEHSNIYLQNGPDRIGRLYKKALYLQYTDETFRTTIEKPVWLGFLGPIIKAETGDKVYVHLKNLASRPYTFHSHGITYYKEHEGAIYPDNTTDFQRADDKVYPGEQYTYMLLATEEQSPGEGDGNCVTRIYHSHIDAPKDIASGLIGPLIICKKDSLDKEKEKHIDREFVVMFSVVDENFSWYLEDNIKTYCSEPEKVDKDNEDFQESNRMYSVNGYTFGSLPGLSMCAEDRVKWYLFGMGNEVDVHAAFFHGQALTNKNYRIDTINLFPATLFDAYMVAQNPGEWMLSCQNLNHLKAGLQAFFQVQECNKSSSKDNIRGKHVRHYYIAAEEIIWNYAPSGIDIFTKENLTAPGSDSAVFFEQGTTRIGGSYKKLVYREYTDASFTNRKERGPEEEHLGILGPVIWAEVGDTIRVTFHNKGAYPLSIEPIGVRFNKNNEGTYYSPNYNPQSRSVPPSASHVAPTETFTYEWTVPKEVGPTNADPVCLAKMYYSAVEPTKDIFTGLIGPMKICKKGSLHANGRQKDVDKEFYLFPTVFDENESLLLEDNIRMFTTAPDQVDKEDEDFQESNKMHSMNGFMYGNQPGLTMCKGDSVVWYLFSAGNEADVHGIYFSGNTYLWRGERRDTANLFPQTSLTLHMWPDTEGTFNVECLTTDHYTGGMKQKYTVNQCRRQSEDSTFYLGERTYYIAAVEVEWDYSPQREWEKELHHLQEQNVSNAFLDKGEFYIGSKYKKVVYRQYTDSTFRVPVERKAEEEHLGILGPQLHADVGDKVKIIFKNMATRPYSIHAHGVQTESSTVTPTLPGETLTYVWKIPERSGAGTEDSACIPWAYYSTVDQVKDLYSGLIGPLIVCRRPYLKVFNPRRKLEFALLFLVFDENESWYLDDNIKTYSDHPEKVNKDDEEFIESNKMHAINGRMFGNLQGLTMHVGDEVNWYLMGMGNEIDLHTVHFHGHSFQYKHRGVYSSDVFDIFPGTYQTLEMFPRTPGIWLLHCHVTDHIHAGMETTYTVLQNEDTKSG
B9: Afamin (protein, UniProt P43652 22-599, looked up)
Afamin: LPTQPRDIENFNSTQKFIEDNIEYITIIAFAQYVQEATFEEMEKLVKDMVEYKDRCMADKTLPECSKLPNNVLQEKICAMEGLPQKHNFSHCCSKVDAQRRLCFFYNKKSDVGFLPPFPTLDPEEKCQAYESNRESLLNHFLYEVARRNPFVFAPTLLTVAVHFEEVAKSCCEEQNKVNCLQTRAIPVTQYLKAFSSYQKHVCGALLKFGTKVVHFIYIAILSQKFPKIEFKELISLVEDVSSNYDGCCEGDVVQCIRDTSKVMNHICSKQDSISSKIKECCEKKIPERGQCIINSNKDDRPKDLSLREGKFTDSENVCQERDADPDTFFAKFTFEYSRRHPDLSIPELLRIVQIYKDLLRNCCNTENPPGCYRYAEDKFNETTEKSLKMVQQECKHFQNLGKDGLKYHYLIRLTKIAPQLSTEELVSLGEKMVTAFTTCCTLSEEFACVDNLADLVFGELCGVNENRTINPAVDHCCKTNFAFRRPCFESLKADKTYVPPPFSQDLFTFHADMCQSQNEELQRKTDRFLVNLVKLKHELTDEELQSLFTNFANVVDKCCKAESPEVCFNEESPKIGN

A short description of the first series: RRT study: LC-MS/MS urinary proteomics, AKI after cardiac surgery, RRT vs No RRT. Also noted: species or system human. Conditions: direction of urinary abundance, patients who did vs did not require RRT/dialysis.
As for B1, the “Up or Down” value is given as “Up”.
On to B2, for which the “Up or Down” value is recorded as “Up”.
In the case of B3, the “Up or Down” value is listed as “Up”.
As for B4, the “Up or Down” value is “Up”.
Turning to B5, the “Up or Down” value is on record as “Up”.
For the molecule B6, the “Up or Down” value is “Up”.
As for B7, the “Up or Down” value is “Up”.
As for B8, the “Up or Down” value was “Up”.
Still for that read-out and setting: next, B9: “Up”.

Staying with this series, now noted: patients who did vs did not require RRT/dialysis; read with the Up or Down column.
For B1, the “Mean Fold Change” value worked out at 25.04.
Turning to B2, the “Mean Fold Change” value was found to be 7.462.
B3: the “Mean Fold Change” value is listed as 1.891.
Turning to B4, the “Mean Fold Change” value is recorded as 37.19.
Consider B5, for which the “Mean Fold Change” value turned out to be 2.512.
In the case of B6, the “Mean Fold Change” value was 2.516.
With B7, the “Mean Fold Change” value amounted to 2.05.
B8: the “Mean Fold Change” value is 15.25.
For B9, the “Mean Fold Change” value worked out at 15.38.
